For assay [1], the target named is T1, Strep-tagged PEAK3 (ST-PEAK3), wild type (human) (UniProt Q6ZS72).
T1 sequence: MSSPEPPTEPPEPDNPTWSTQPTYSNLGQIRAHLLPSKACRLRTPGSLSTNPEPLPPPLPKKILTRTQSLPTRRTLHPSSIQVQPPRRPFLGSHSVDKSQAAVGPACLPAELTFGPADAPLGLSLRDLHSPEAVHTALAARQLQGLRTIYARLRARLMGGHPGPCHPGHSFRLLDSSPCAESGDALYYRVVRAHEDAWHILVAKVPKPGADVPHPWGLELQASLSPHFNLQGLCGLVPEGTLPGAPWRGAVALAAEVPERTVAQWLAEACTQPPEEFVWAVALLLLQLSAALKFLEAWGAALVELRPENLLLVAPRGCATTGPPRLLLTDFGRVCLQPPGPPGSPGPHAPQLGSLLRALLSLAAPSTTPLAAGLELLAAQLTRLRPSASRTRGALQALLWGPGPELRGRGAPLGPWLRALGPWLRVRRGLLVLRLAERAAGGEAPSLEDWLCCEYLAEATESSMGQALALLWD
Description: pull-down; ST-PEAK3 captured on Strep-Tactin magnetic beads from lysates of U2OS cells stably expressing ST-PEAK3 (or empty vector) and transfected with FLAG-PEAK3 constructs; western blot (n = 2). (In general: Immunoblotting shows a protein as a band on a membrane.)

Protein sequences, listed by entry. Tags and fused reporters are not part of them.
UniProt Q9ULH1: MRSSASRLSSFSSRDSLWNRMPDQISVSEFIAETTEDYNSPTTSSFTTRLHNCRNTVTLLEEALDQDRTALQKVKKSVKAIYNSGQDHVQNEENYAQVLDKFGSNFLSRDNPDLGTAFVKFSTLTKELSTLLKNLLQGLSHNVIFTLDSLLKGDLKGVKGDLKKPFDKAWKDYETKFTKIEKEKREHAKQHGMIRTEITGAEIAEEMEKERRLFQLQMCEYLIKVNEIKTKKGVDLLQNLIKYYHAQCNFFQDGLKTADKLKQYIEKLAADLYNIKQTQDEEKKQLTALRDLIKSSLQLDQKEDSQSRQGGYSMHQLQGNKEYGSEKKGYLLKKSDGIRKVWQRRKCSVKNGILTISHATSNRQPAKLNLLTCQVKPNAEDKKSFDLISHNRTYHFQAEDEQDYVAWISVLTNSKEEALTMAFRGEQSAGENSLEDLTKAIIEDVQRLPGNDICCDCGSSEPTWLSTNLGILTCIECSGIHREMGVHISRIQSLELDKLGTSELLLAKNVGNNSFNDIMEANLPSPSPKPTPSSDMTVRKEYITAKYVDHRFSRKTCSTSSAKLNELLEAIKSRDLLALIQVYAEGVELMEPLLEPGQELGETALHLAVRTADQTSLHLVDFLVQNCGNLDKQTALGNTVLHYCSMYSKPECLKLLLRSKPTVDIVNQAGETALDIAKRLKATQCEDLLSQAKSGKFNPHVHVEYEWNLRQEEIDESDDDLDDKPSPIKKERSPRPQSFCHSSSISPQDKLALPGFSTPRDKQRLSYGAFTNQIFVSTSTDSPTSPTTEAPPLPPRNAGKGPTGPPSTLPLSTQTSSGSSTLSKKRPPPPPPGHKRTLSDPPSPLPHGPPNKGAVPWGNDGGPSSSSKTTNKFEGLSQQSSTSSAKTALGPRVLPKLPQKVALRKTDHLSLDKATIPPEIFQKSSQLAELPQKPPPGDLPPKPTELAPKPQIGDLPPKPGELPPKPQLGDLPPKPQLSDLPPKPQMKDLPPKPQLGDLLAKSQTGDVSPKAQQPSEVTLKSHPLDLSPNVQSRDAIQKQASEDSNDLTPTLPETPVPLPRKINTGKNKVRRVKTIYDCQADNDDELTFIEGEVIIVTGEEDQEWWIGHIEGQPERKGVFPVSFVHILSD

The target of assay [2] is ADP-ribosylation factor (ARF) GTPase-activating protein ASAP1 (human (endogenous in U2OS, HeLa, THP1, HEK293T)) (UniProt Q9ULH1). Description: co-IP; endogenous ASAP1 immunoprecipitated (anti-ASAP1, Bethyl) from THP1 cells expressing ST-PEAK3, treated or not with pervanadate or PYK2 inhibitor; blot for ST-PEAK3 (n = 2).
The target of assay [3] is T2, Strep-tagged PEAK3 (ST-PEAK3), wild type (human), Q6ZS72.
T2 chain: T1 sequence
The assay can be described thus: pull-down; ST-PEAK3 (WT or A436E) pulled down from lysates of U2OS (Figure 5b) and THP1 cells (Figure 5c, 6c), western blot of endogenous partners; THP1 cells also treated or not with pervanadate (0.1 uM, 15 min) or PYK2 inhibitor (1 uM, 2 h). Particulars: remark: other sources report otherwise.

No constants are given. Whether binding was seen depends on the method and setting. Binding seen in cells or lysates may run through a third protein. Some binding calls cover weakened binding; strength is not graded here. Sequences can lack the tags named with a protein.

B1: FLAG-PEAK3, wild type (protein, UniProt Q6ZS72 1-473)
chain: T1 sequence
As for B1, in assay [1], the binding result is listed as “binds”.

B2: Strep-tagged PEAK3 (ST-PEAK3), wild type (protein, UniProt Q6ZS72 1-473)
chain: T1 sequence
As for B2, the binding entry in assay [2] is recorded as “binds”.

B3: CRKII, P46108-1 1-304 (protein)
chain: MAGNFDSEERSSWYWGRLSRQEAVALLQGQRHGVFLVRDSSTSPGDYVLSVSENSRVSHYIINSSGPRPPVPPSPAQPPPGVSPSRLRIGDQEFDSLPALLEFYKIHYLDTTTLIEPVSRSRQGSGVILRQEEAEYVRALFDFNGNDEEDLPFKKGDILRIRDKPEEQWWNAEDSEGKRGMIPVPYVEKYRPASASVSALIGGNQEGSHPQPLGGPEPGPYAQPSVNTPLPNLQNGPIYARVIQKRVPNAYDKTALALEVGELVKVTKINVSGQWEGECNGKRGHFPFTHVRLLDQQNPDEDFS
For the molecule B3, the binding entry in assay [3] is reported as “no binding”.

(Values after article PMC8699254.)
